PubChem BioAssay AID1224826, NIAID, 2016

Purpose: 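Genes that change LPS-induced Tnf promoter activity in mouse macrophages when knocked down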 (primary screen)
System: RAW264.7 G9 macrophages from mouse bearing reporters for p65 (GFP) and the Tnf promoter (mCherry)
Reagents: siRNA pool against mouse genes, 100 nM
Timing: 16 h of LPS stimulation, after 2 days of siRNA transfection
Challenge: bacterial lipopolysaccharide (Salmonella minnesota R595), 10 ng/ml
Measurement: 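Imaged Tnf reporter mCherry in nuclei, minus background, normalised per plate to the median and expressed as robust z-scores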
Reading the numbers: Tnf reporter robust z-score: higher = stronger Tnf promoter reporter signal after LPS
Rule for the call: 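a well counts as active at a score of -1.3 or below (Tlr4 knock-down control median) or above 3 (raised signal); controls and wells holding fewer than 50 cells are excluded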
Meaning of the calls: active = Tnf reporter clearly lowered or raised; inactive = no clear change in Tnf reporter
The whole screen tested about 17,000 reagents; shown is a part drawn at random. About 1,110 of them (6.6%) were called active. 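Active means lowered or raised reporter signal; replicate intensities are raw and not normalised per plate.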 Further read-outs or replicates are left out here.

Iyd (GeneID 70337) → Tnf reporter robust z-score = -0.19; fewer than 50 cells in well = enough cells in well; Call = inactive
Serf2 (GeneID 378702) → fewer than 50 cells in well = fewer than 50 cells per well; well left out of calls; Call = inactive
Epb42 (GeneID 13828) → Tnf reporter robust z-score = 1.06; fewer than 50 cells in well = enough cells in well; Call = inactive
Or7a40 (GeneID 18316) → Tnf reporter robust z-score = -0.04; fewer than 50 cells in well = enough cells in well; Call = inactive
Tm4sf4 (GeneID 229302) → Tnf reporter robust z-score = 0.57; fewer than 50 cells in well = enough cells in well; Call = inactive
Ppp1r9b (GeneID 217124) → Tnf reporter robust z-score = 0.93; fewer than 50 cells in well = enough cells in well; Call = inactive
Pnpla3 (GeneID 116939) → Tnf reporter robust z-score = -0.51; fewer than 50 cells in well = enough cells in well; Call = inactive
Tmem51 (GeneID 214359) → Tnf reporter robust z-score = -1.25; fewer than 50 cells in well = enough cells in well; Call = inactive
Gimap7 (GeneID 231932) → Tnf reporter robust z-score = -1.34; fewer than 50 cells in well = enough cells in well; Call = active
Ccnt1 (GeneID 12455) → Tnf reporter robust z-score = -0.8; fewer than 50 cells in well = enough cells in well; Call = inactive
Klk6 (GeneID 19144) → Tnf reporter robust z-score = 0.37; fewer than 50 cells in well = enough cells in well; Call = inactive
Ggt5 (GeneID 23887) → Tnf reporter robust z-score = -0.14; fewer than 50 cells in well = enough cells in well; Call = inactive
